Values quoted from earlier work as cited in US20240390871A1, “Production of encapsulated nanoparticles at high volume fractions” (iCeutica Pty Ltd., priority 2009, published 2024).

Conditions: current commercial formulations

COc1ccc2cc([C@H](C)C(=O)O)ccc2c1 [naproxen]
Tmax: 1 to 4 h
